Several values for one entry are separate records, joined by “and”; a condition that tells them apart may be missing. Equal entries are not always repeated. The list shows a part of the results. Single values are uncertain here, since repeats match poorly.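 HEK293T cells were given each compound shortly before transfection with a reporter in which red mCherry is followed by the SARS-CoV-2 frameshift element and then GFP in the −1 frame, so GFP appears only after frameshifting.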
These compounds were tested on HEK293T (assay: percent viability (nuclei count) relative to control; higher = more viable cells). Settings: 10 µM; 24 h.

SMILES	percent viability
CCCCCCCCCCOc1cc2c(O)c(C(=O)OCC)cnc2cc1OCC [decoquinate]	242%
CC(N/C(=N\C#N)Nc1ccncc1)C(C)(C)C (centres undefined) [pinacidil]	200%
O=C(CCCl)NCCc1ccccc1 [fenaclon]	80%
C[C@]12CC[C@@H]3c4ccc(O)cc4C[C@@H](CCCCCCCCC[S+]([O-])CCCC(F)(F)C(F)(F)F)[C@H]3[C@@H]1CC[C@@H]2O (some centres undefined) [Faslodex]	125%
Cc1ncc(C[n+]2csc(CCOP(=O)(O)O)c2C)c(N)n1 [monophosphothiamine]	260%
O=C(O)c1cc(/N=N/c2ccc(S(=O)(=O)Nc3ccccn3)cc2)ccc1O [sulfasalazine]	145%
CO[C@@]1(NC(=O)Cc2cccs2)C(=O)N2C(C(=O)O)=C(COC(N)=O)CS[C@@H]21 [cefoxitin]	194%
CC1=C(C/C=C(\C)CCC[C@H](C)CCC[C@H](C)CCCC(C)C)C(=O)c2ccccc2C1=O [Mephyton]	266%
N[C@@H]1[C@H]2CN(c3nc4c(cc3F)c(=O)c(C(=O)O)cn4-c3ccc(F)cc3F)C[C@@H]12 [trovafloxacin]	220%
CCO/C([O-])=N/c1c[n+](N2CCOCC2)no1	157%
CCOc1ccc(/N=N/c2ccc(N)cc2N)cc1 [etoxazene]	180%
CC1CC(OC(=O)C(O)c2ccccc2)CC(C)(C)C1 (centres undefined) [cyclandelate]	254%
NC12CC3CC(CC(C3)C1)C2 [amantadine]	116%
CC(CN1c2ccccc2Sc2cccnc21)N(C)C (centres undefined) [isothipendyl]	62.2%
CCc1nn(CCCN2CCN(c3cccc(Cl)c3)CC2)c(=O)n1CCOc1ccccc1	126%
c1cnc2cc3c(cc2n1)[C@@H]1CNC[C@H]3C1 [varenicline]	191%
CCCCOc1ccc(CC(=O)NO)cc1 [bufexamac]	126%
CN(C)[C@@H]1C(=O)C(C(=O)NCNCCCC[C@H](N)C(=O)O)=C(O)[C@@]2(O)C(=O)C3=C(O)c4c(O)cccc4[C@@](C)(O)[C@H]3C[C@@H]12 [lymecycline]	233%
CO/N=C(\C(=O)N[C@@H]1C(=O)N2C(C(=O)O)=C(C[N+]3(C)CCCC3)CS[C@H]12)c1csc(N)n1 [Maxipeme]	247%
CCCC(CCC)C(=O)O[C@H]1C[C@H]2CC[C@@H](C1)[N+]2(C)C [Anisotropine Methylbromide]	354%

Nine successive records from above:
SMILES	percent viability
CC1CC(OC(=O)C(O)c2ccccc2)CC(C)(C)C1 (centres undefined) [cyclandelate]	254%
NC12CC3CC(CC(C3)C1)C2 [amantadine]	116%
CC(CN1c2ccccc2Sc2cccnc21)N(C)C (centres undefined) [isothipendyl]	62.2%
CCc1nn(CCCN2CCN(c3cccc(Cl)c3)CC2)c(=O)n1CCOc1ccccc1	126%
c1cnc2cc3c(cc2n1)[C@@H]1CNC[C@H]3C1 [varenicline]	191%
CCCCOc1ccc(CC(=O)NO)cc1 [bufexamac]	126%
CN(C)[C@@H]1C(=O)C(C(=O)NCNCCCC[C@H](N)C(=O)O)=C(O)[C@@]2(O)C(=O)C3=C(O)c4c(O)cccc4[C@@](C)(O)[C@H]3C[C@@H]12 [lymecycline]	233%
CO/N=C(\C(=O)N[C@@H]1C(=O)N2C(C(=O)O)=C(C[N+]3(C)CCCC3)CS[C@H]12)c1csc(N)n1 [Maxipeme]	247%
CCCC(CCC)C(=O)O[C@H]1C[C@H]2CC[C@@H](C1)[N+]2(C)C [Anisotropine Methylbromide]	354%

(further entries)

SMILES	percent viability
CC(C)C[C@H](NC(=O)[C@@H](O)[C@H](N)Cc1ccccc1)C(=O)O [ubenimex]	229%
O=C(O)Cc1cscc1Nc1c(Cl)cccc1Cl [eltenac]	66.6%
N[C@@H](Cc1c[nH]cn1)C(=O)O [histidine]	41.7%
C/C=C(/C(=C/C)c1ccc(O)cc1)c1ccc(O)cc1 [dienestrol]	163%
NC(=O)CCCCC1CCSS1 (centres undefined)	284%
C=C[C@]1(C)C[C@@H](OC(=O)CS[C@@H]2C[C@H]3CC[C@@H](C2)N3C)[C@]2(C)[C@H](C)CC[C@]3(CCC(=O)[C@H]32)[C@@H](C)[C@@H]1O [retapamulin]	329%
CC[C@H](C)[C@@H]1NC(=O)[C@H](Cc2ccc(OC)cc2)NC(=O)CCCSC[C@@H](C(=O)N2CCC[C@H]2C(=O)N[C@@H](CC(C)C)C(=O)NCC(N)=O)NC(=O)[C@H](CC(N)=O)NC(=O)[C@H](CCC(N)=O)NC1=O [carbetocin]	196%
Cc1c(C(=O)NN2CCCCC2)nn(-c2ccc(Cl)cc2Cl)c1-c1ccc(Cl)cc1 [rimonabant]	184%
N[C@@H](Cc1c[nH]cn1)C(=O)O [L-Histidine]	284%
CO[C@H](C(=O)[C@@H](O)[C@@H](C)O)[C@@H]1Cc2cc3cc(O[C@H]4C[C@@H](O[C@H]5C[C@@H](O)[C@H](O)[C@@H](C)O5)[C@H](O)[C@@H](C)O4)c(C)c(O)c3c(O)c2C(=O)[C@H]1O[C@H]1C[C@@H](O[C@H]2C[C@@H](O[C@H]3C[C@](C)(O)[C@H](O)[C@@H](C)O3)[C@@H](O)[C@@H](C)O2)[C@H](O)[C@@H](C)O1 [Plicamycin]	39.7%
CCC(C(=O)O)c1ccc(-c2ccccc2)cc1 (centres undefined) [xenbucin]	101%
CCOC(=O)O[C@]1(C(=O)COC(=O)CC)CC[C@H]2[C@@H]3CCC4=CC(=O)C=C[C@]4(C)[C@H]3[C@@H](O)C[C@@]21C	213%
CN[C@@H]1[C@@H](O[C@H]2O[C@H](CO)[C@@H](N)[C@H](O)[C@H]2O)OC2C[C@@H](N)[C@@H](O[C@H]3[C@H](O)[C@@H](O)[C@H](N)C[C@@H]3N)OC2[C@@H]1O (some centres undefined) [apramycin]	228% and 197%
CC1=C(C(=O)O)N2C(=O)[C@@H](NC(=O)[C@H](N)c3ccccc3)[C@H]2SC1	349%
CC1=C(/C=C/C(C)=C/C=C/C(C)=C\C(=O)O)C(C)(C)CCC1 [isotretionin]	232%
CCCCCOC(=O)Nc1nc(=O)n([C@@H]2O[C@H](C)[C@@H](O)[C@H]2O)cc1F [capecitabine]	279% and 244%
CCN(CC)CCCCCCNc1cc(OC)cc2c(C)ccnc12 [sitamaquine]	158%
CC(=O)O[C@H]1C[C@@]2(C)[C@@H](C[C@@H](O)[C@H]3[C@@]4(C)CC[C@@H](O)[C@@H](C)[C@@H]4CC[C@@]32C)/C1=C(\CCC=C(C)C)C(=O)O	173%
CN(C)CCOC(=O)C(c1ccccc1)C1(O)CCCC1 (centres undefined) [cyclopentolate]	143%

Source: the supplement of paper PMC8256030
